Paper PMC12040169 (PLOS Biology, 2025)
The other results are listed elsewhere or left out.

Each molecule was assayed on T1, CTL2-GFP (C. trachomatis L2/434/Bu, GFP-expressing). Details: bulk GFP, single well; 28.5 h, 10 µM; inhibitor.
T1 construct: L2/434/Bu, GFP-expressing
Set-up: species or system HeLa; Intracellular C. trachomatis growth in HeLa cells, bulk GFP fluorescence relative to DMSO

| Compound | % of control remaining [%] |
| --- | --- |
| O=C(Nc1cccc(F)c1)c1cc2ccccc2cc1O [CBK016863] | 99.2138 |
| O=C(CSc1nc2[nH]ncc2c(=O)n1-c1ccccc1)Nc1ccc(F)c(Cl)c1 [CBK266453] | 105.215 |
| COc1ccc(COc2nc3ccccc3nc2NC(C)C)cc1OC [CBK116610] | 100 |
| OCCOc1nc2ccccc2s1 [CBK001812] | 94.5812 |
| Cc1ccc(Oc2c([N+](=O)[O-])c(C)nn2C)c(Br)c1 [CBK000283] | 119.878 |
| Cc1ccc(Nc2ncc(C(=O)NCc3ccccn3)c3ccccc23)cc1Cl [CBK291113] | 148.832 |
| c1cc(CNCCN2CCOCC2)cs1 [CBK001894] | 102.432 |
| Cc1ccc(S(=O)(=O)NC(C)C(=O)NCc2ccco2)cc1 (stereo not shown) [CBK266514] | 102.097 |
| COC(=O)c1c(C)[nH]c(C(=O)N2CCCC2c2cccnc2)c1C (stereo not shown) [CBK296639] | 133.639 |
| O=C(c1cc(-c2ccc(Cl)cc2)[nH]n1)N1CCN(c2ncccn2)CC1 [CBK116551] | 108.207 |
| CCN(CC)CCN(C(=O)NCCc1c[nH]c2ccc(OC)cc12)C(C)c1ccc(OC)c(OC)c1 (stereo not shown) [CBK158948] | 123.626 |
| Cc1nc(Cc2nc(-c3ccc4c(c3)CCCN4S(C)(=O)=O)cs2)cs1 [CBK304542] | 121.427 |
| CC(C)(C)OC(=O)N1CCC(Oc2ccc(CN)cc2)CC1 [CBK004131] | 133.763 |
| COCCNC(=O)c1ccc(-c2ccccc2)nc1NCC1CC1 [CBK106242] | 117.955 |
| N#CCC(=O)N1CCN(Cc2ccc3c(c2)OCO3)CC1 [CBK074447] | 114.276 |
| O=C(O)/C=C\C(=O)Nc1ccccc1C(=O)N1CCOCC1 [CBK287067] | 113.506 |
| Cc1nc(C2CCCCN2C(=O)CCc2ccccc2)ncc1C(=O)Nc1ccc(F)cc1 (stereo not shown) [CBK285870] | 98.8703 |
| N#Cc1ccc(C(=O)N2C[C@@H]3C[C@H](C2)c2ccc(-c4cccs4)c(=O)n2C3)cc1 [CBK289180] | 143.28 |
| CCOC(=O)c1c[nH]c2nc(COc3ccccc3)nn2c1=O [CBK268088] | 96.9649 |
| CC(=O)N1CCN(c2nc3ccccc3s2)CC1 [CBK287362] | 121.471 |
| Oc1cc(Cc2ccccc2)cnc1CN1CCOCC1 [CBK288173] | 123.104 |
| O=C(Cc1ccccc1Oc1ccccc1)Nc1cnc(-c2ccc(F)cc2)c(-c2ccco2)n1 [CBK037194] | 92.0604 |
| O=C(Oc1ccc(Cl)cc1)c1cc(S(=O)(=O)N2CCOCC2)ccc1Cl [CBK261670] | 111.457 |
| O=C(c1nc(SCc2ccccc2)ncc1Cl)N1CCN(c2cccc(Cl)c2)CC1 [CBK268712] | 99.2487 |
| CC(C)(C)OC(=O)NC1CCC(NCc2c[nH]c(-c3ccccc3)n2)CC1 (stereo not shown) [CBK056692] | 195.279 |
| O=C(O)CN1C(=O)S/C(=C\c2ccc([N+](=O)[O-])o2)C1=O [CBK017858] | 51.0045 |
| O=C(CN1C(=O)N2CCCN=C2c2ccccc21)NC1CCCC1 [CBK284397] | 101.672 |

| Compound | % of control remaining [%] |
| --- | --- |
| CC(C)(C)OC(=O)N1CCC(CNS(=O)(=O)c2cccs2)CC1 [CBK086019] | 141.694 |
| O=S(=O)(c1ccccc1)c1ccccc1C(F)(F)F [CBK085887] | 91.1464 |
| O=c1[nH]nc2c(S(=O)(=O)N3CCOCC3)cccn12 [CBK288469] | 124.402 |
| Nc1ncc(-c2ccoc2)nc1-c1ccc(C(=O)O)cc1 [CBK063972] | 112.64 |
| Cc1nn(CC(=O)N(C)CCn2ccnc2C)c(=O)c2ccccc12 [CBK306536] | 118.262 |
| COc1cc(-c2noc(-c3cc(-c4ccccc4)n[nH]3)n2)cc(OC)c1OC [CBK287774] | 114.981 |
| OCCN1CCN(c2nc3ccccc3nc2-c2ccccc2)CC1 [CBK268799C] | 92.832 |
| CC(C)c1cc(C(=O)N2CCOCC2)c(NC(=O)c2cc(-c3cccnc3)nc3ccc(Br)cc23)s1 [CBK267763] | 123.498 |
| NS(=O)(=O)c1cccc2c1CC1(CC2)OCCO1 [CBK010703] | 120.123 |
| O=C(c1ccc(-c2cncc(-c3ccc(Cl)s3)n2)cc1)N1CCOCC1 [CBK138517] | 105.211 |
| CCN(CC)CCSc1nc2sc3c(c2c(=O)n1-c1ccccc1)CC(C)(C)OC3 [CBK263728] | 120.167 |
| Cc1ccc(C(C)(C)CC(C)NC2C3CC4CC(C3)CC2C4)o1 (stereo not shown) [CBK262871] | 115.63 |
| Cc1cc(C)n(CC(C)CNC(=O)CCCN(C)C)n1 (stereo not shown) [CBK304831] | 75.6182 |
| O=C(Nc1c(Cl)cccc1Cl)c1ccc(-c2ccccc2)cc1 [CBK262300] | 95.8761 |
| Cc1nc2c(OCc3ccc(F)c(F)c3)cccn2c1N(C)C(=O)CCC1CCCC1 [CBK147202] | 161.251 |
| Cc1nc2cc(OCc3nc(C(=O)N(C)CCN(C)C)co3)ccc2s1 [CBK306685] | 69.2189 |
| O=C(O)c1ccccc1-c1ccc(-c2cc(C(=O)O)c3cc(F)ccc3n2)o1 [CBK269051] | 114.517 |
| Cc1cc(=O)[nH]c(SCC(=O)O)c1C#N [CBK019224] | 117.453 |
| CCCCOc1nccnc1/C=C/c1ccccc1 [CBK106890] | 188.565 |
| CCCCCCc1ccc(NS(=O)(=O)c2cc3c(NCCN(C)C)nccc3s2)cc1 [CBK038253C] | 110.954 |
| COC(=O)c1cccc(OCC(O)Cn2nc(C)c(C)c(C#N)c2=O)c1 (stereo not shown) [CBK305563] | 139.341 |
| CC(C)(C)C(=O)N1CC(n2nc(-c3ccccc3)ccc2=O)C1 [CBK284623] | 142.022 |
| COc1ccc(NC(=O)CC(CN(C)Cc2ccccc2)C(=O)O)cc1 (stereo not shown) [CBK286854] | 133.273 |
| CCc1ccc(-c2ccc(-c3cc(C(=O)O)c4cc(Br)ccc4n3)o2)cc1 [CBK300543] | 94.1348 |
| COc1ccc(CNC(=O)[C@H]2C=CCN2C(=O)c2cccs2)cc1 [CBK282325] | 123.524 |
| CCOc1ccc(S(=O)(=O)N2CCC(C(=O)O)CC2)cc1Cl [CBK269759] | 116.479 |
| O=C(CSc1ccc(Cl)cc1)NNC(=O)c1cccc([N+](=O)[O-])c1 [CBK268384] | 129.704 |

Structures above with a carbonyl joined to an NH by a bond outside any ring (17):

| Compound | % of control remaining [%] |
| --- | --- |
| O=C(Nc1cccc(F)c1)c1cc2ccccc2cc1O [CBK016863] | 99.2138 |
| O=C(CSc1nc2[nH]ncc2c(=O)n1-c1ccccc1)Nc1ccc(F)c(Cl)c1 [CBK266453] | 105.215 |
| Cc1ccc(Nc2ncc(C(=O)NCc3ccccn3)c3ccccc23)cc1Cl [CBK291113] | 148.832 |
| Cc1ccc(S(=O)(=O)NC(C)C(=O)NCc2ccco2)cc1 (stereo not shown) [CBK266514] | 102.097 |
| CCN(CC)CCN(C(=O)NCCc1c[nH]c2ccc(OC)cc12)C(C)c1ccc(OC)c(OC)c1 (stereo not shown) [CBK158948] | 123.626 |
| COCCNC(=O)c1ccc(-c2ccccc2)nc1NCC1CC1 [CBK106242] | 117.955 |
| O=C(O)/C=C\C(=O)Nc1ccccc1C(=O)N1CCOCC1 [CBK287067] | 113.506 |
| Cc1nc(C2CCCCN2C(=O)CCc2ccccc2)ncc1C(=O)Nc1ccc(F)cc1 (stereo not shown) [CBK285870] | 98.8703 |
| O=C(Cc1ccccc1Oc1ccccc1)Nc1cnc(-c2ccc(F)cc2)c(-c2ccco2)n1 [CBK037194] | 92.0604 |
| CC(C)(C)OC(=O)NC1CCC(NCc2c[nH]c(-c3ccccc3)n2)CC1 (stereo not shown) [CBK056692] | 195.279 |
| O=C(CN1C(=O)N2CCCN=C2c2ccccc21)NC1CCCC1 [CBK284397] | 101.672 |
| CC(C)c1cc(C(=O)N2CCOCC2)c(NC(=O)c2cc(-c3cccnc3)nc3ccc(Br)cc23)s1 [CBK267763] | 123.498 |
| Cc1cc(C)n(CC(C)CNC(=O)CCCN(C)C)n1 (stereo not shown) [CBK304831] | 75.6182 |
| O=C(Nc1c(Cl)cccc1Cl)c1ccc(-c2ccccc2)cc1 [CBK262300] | 95.8761 |
| COc1ccc(NC(=O)CC(CN(C)Cc2ccccc2)C(=O)O)cc1 (stereo not shown) [CBK286854] | 133.273 |
| COc1ccc(CNC(=O)[C@H]2C=CCN2C(=O)c2cccs2)cc1 [CBK282325] | 123.524 |
| O=C(CSc1ccc(Cl)cc1)NNC(=O)c1cccc([N+](=O)[O-])c1 [CBK268384] | 129.704 |

Some of these compounds in order of length of the SMILES, rising:

| Compound | % of control remaining [%] |
| --- | --- |
| Cc1nn(CC(=O)N(C)CCn2ccnc2C)c(=O)c2ccccc12 [CBK306536] | 118.262 |
| O=C(c1cc(-c2ccc(Cl)cc2)[nH]n1)N1CCN(c2ncccn2)CC1 [CBK116551] | 108.207 |
| CCN(CC)CCSc1nc2sc3c(c2c(=O)n1-c1ccccc1)CC(C)(C)OC3 [CBK263728] | 120.167 |

(more compounds)

| Compound | % of control remaining [%] |
| --- | --- |
| S=c1ccc(N/N=C/C2CC=CCC2)n[nH]1 (stereo not shown) [CBK018655] | 124.568 |
| Cc1ccc(S(=O)(=O)N2CCCC(C(=O)O)C2)cc1 (stereo not shown) [CBK100948] | 102.182 |
| O=C(O)[C@H]1CCCN1Cc1cc(Cl)ccc1OCCCn1ccnc1 [CBK307436] | 148.496 |
| CC(C)C(=O)N[C@H]1C[C@@H](Cc2cc(CN3CCOCC3)on2)C1(C)C [CBK289248] | 158.015 |
| COc1ccc(C(=O)COc2nc3c(C(F)(F)F)cc(C4CC4)nc3o2)cc1 [CBK269498] | 136.145 |
| O=C(Nc1cccnc1)c1cc(S(=O)(=O)N2CCCCC2)c(Cl)cc1Cl [CBK264567] | 103.756 |
| COc1cc(/C=C/c2nc(O)c([N+](=O)[O-])c(=O)[nH]2)ccc1OCC(=O)N1CCOCC1 [CBK267168] | 149.394 |
| Cc1noc(NS(=O)(=O)c2ccc(NC(=O)C3COc4ccccc4O3)cc2)c1C (stereo not shown) [CBK264923] | 70.0473 |
| COc1ccc(Br)cc1S(=O)(=O)Nc1ccc(C(=O)O)cc1 [CBK034047] | 96.554 |
| O=c1[nH]c2ccccc2n1CCCN1CCN(c2nccnc2Oc2ccc(F)cc2)CC1 [CBK083027T] | 172.482 |
| O=[N+]([O-])c1cc(/C=N/Nc2nnn[nH]2)ccc1N1CCOCC1 [CBK262199] | 135.794 |
| CC(=O)N1C[C@@H]2OCC(=O)N(Cc3ccccn3)[C@@H]2C1 [CBK289245] | 162.388 |
| CCOC(=O)CN1C(=O)S/C(=C/c2cc(C)n(-c3ccc(S(N)(=O)=O)cc3)c2C)C1=O [CBK265410] | 102.783 |
| Nc1ncnc(Nc2cccc(F)c2)n1 [CBK017447] | 101.518 |
| OC(CNc1nccnc1-c1cccc(C(F)(F)F)c1)COc1ccccc1 (stereo not shown) [CBK037010] | 172.17 |
| COc1cc2c(cc1OC)CN(Cc1csc(C)n1)CC2 [CBK126443] | 121.412 |
| O=C1NCCN/C1=C\C(=O)c1ccc(Br)cc1 [CBK261427] | 100.63 |
| O=C(CSc1ccc(-n2ccnc2)nn1)Nc1cccnc1 [CBK287635] | 123.071 |
| O=C(Nc1sc2c(c1C(=O)N1CCOCC1)CCCCC2)c1cccs1 [CBK307099] | 98.9685 |
| COCCNC(=O)Cn1nnc(-c2ccc(OC)cc2)n1 [CBK069349] | 100 |
| CCCCNC(=S)NC1CC[C@@]2(c3ccc(Br)cc3)CCN(C)[C@H]2C1 (stereo partly shown) [CBK003781] | 105.847 |
| C/C(=C(/C(=O)N(N)c1nc2ccccc2s1)C(=O)C(F)(F)F)N1CCC(C(N)=O)(N2CCCCC2)CC1 [CBK265787] | 56.7625 |
| Cc1ccc(NC(=O)Cc2ccncc2)c(C)n1 [CBK200385] | 103.763 |
| C=C(C)CNC(=O)c1cc(-c2cccc(NC(C)=O)c2)cnc1N(C)S(C)(=O)=O [CBK076622] | 168.164 |
| Cc1nnnn1CCC(=O)NCCc1cn2ccccc2n1 [CBK306816] | 114.972 |
